Results taken from patent publication US9284543B2, “Neutral active soluble truncated PH20 polypeptides and uses thereof” (Halozyme, Inc., priority 2008, dated 2016).

B1: N82A: PH20sHis N-glycosylation site mutant N82A, SEQ ID NO:202 (protein)
chain: MGVLKFKHIFFRSFVKSSGVSQIVFTFLLIPCCLTLNFRAPPVIPNVPFLWAWNAPSEFCLGKFDEPLDMSLFSFIGSPRIAATGQGVTIFYVDRLGYYPYIDSITGVTVNGGIPQKISLQDHLDKAKKDITFYMPVDNLGMAVIDWEEWRPTWARNWKPKDVYKNRSIELVQQQNVQLSLTEATEKAKQEFEKAGKDFLVETIKLGKLLRPNHLWGYYLFPDCYNHHYKKPGYNGSCFNVEIKRNDDLSWLWNESTALYPSIYLNTQQSPVAATLYVRNRVREAIRVSKIPDAKSPLPVFAYTRIVFTDQVLKFLSQDELVYTFGETVALGASGIVIWGTLSIMRSMKSCLLLDNYMETILNPYIINVTLAAKMCSQVLCQEQGVCIRKNWNSSDYLHLNPDNFAIQLEKGGKFTVRGKPTLEDLEQFSEKFYCSCYSTLSCKEKADVKDTDAVDVCIADGVCIDAFLKPPMETEEPQIFYNASPSTLSHHHHHH
modifications: His tag; PH20sHis N82A
B2: N166A: PH20sHis N-glycosylation site mutant N166A, SEQ ID NO:203 (protein)
chain: B1 chain with A82N, N166A
modifications: His tag; PH20sHis N166A
B3: N235A: PH20sHis N-glycosylation site mutant N235A, SEQ ID NO:204 (protein)
chain: B1 chain with A82N, N235A
modifications: His tag; PH20sHis N235A
B4: SPAM1-PPME: C-terminally truncated human PH20, precursor 474 aa (SEQ ID NO:26), mature 439 aa (SEQ ID NO:78) (protein, listed as Homo sapiens)
chain 1: MGVLKFKHIFFRSFVKSSGVSQIVFTFLLIPCCLTLNFRAPPVIPNVPFLWAWNAPSEFCLGKFDEPLDMSLFSFIGSPRINATGQGVTIFYVDRLGYYPYIDSITGVTVNGGIPQKISLQDHLDKAKKDITFYMPVDNLGMAVIDWEEWRPTWARNWKPKDVYKNRSIELVQQQNVQLSLTEATEKAKQEFEKAGKDFLVETIKLGKLLRPNHLWGYYLFPDCYNHHYKKPGYNGSCFNVEIKRNDDLSWLWNESTALYPSIYLNTQQSPVAATLYVRNRVREAIRVSKIPDAKSPLPVFAYTRIVFTDQVLKFLSQDELVYTFGETVALGASGIVIWGTLSIMRSMKSCLLLDNYMETILNPYIINVTLAAKMCSQVLCQEQGVCIRKNWNSSDYLHLNPDNFAIQLEKGGKFTVRGKPTLEDLEQFSEKFYCSCYSTLSCKEKADVKDTDAVDVCIADGVCIDAFLKPPME
chain 2: LNFRAPPVIPNVPFLWAWNAPSEFCLGKFDEPLDMSLFSFIGSPRINATGQGVTIFYVDRLGYYPYIDSITGVTVNGGIPQKISLQDHLDKAKKDITFYMPVDNLGMAVIDWEEWRPTWARNWKPKDVYKNRSIELVQQQNVQLSLTEATEKAKQEFEKAGKDFLVETIKLGKLLRPNHLWGYYLFPDCYNHHYKKPGYNGSCFNVEIKRNDDLSWLWNESTALYPSIYLNTQQSPVAATLYVRNRVREAIRVSKIPDAKSPLPVFAYTRIVFTDQVLKFLSQDELVYTFGETVALGASGIVIWGTLSIMRSMKSCLLLDNYMETILNPYIINVTLAAKMCSQVLCQEQGVCIRKNWNSSDYLHLNPDNFAIQLEKGGKFTVRGKPTLEDLEQFSEKFYCSCYSTLSCKEKADVKDTDAVDVCIADGVCIDAFLKPPME
modifications: HuPH20 precursor 1-474; Mature HuPH20 36-474
B5: SPAM1-VASL: full length human PH20, precursor 509 aa (SEQ ID NO:1), mature 474 aa (SEQ ID NO:108) (protein, listed as Homo sapiens)
chain: MGVLKFKHIFFRSFVKSSGVSQIVFTFLLIPCCLTLNFRAPPVIPNVPFLWAWNAPSEFCLGKFDEPLDMSLFSFIGSPRINATGQGVTIFYVDRLGYYPYIDSITGVTVNGGIPQKISLQDHLDKAKKDITFYMPVDNLGMAVIDWEEWRPTWARNWKPKDVYKNRSIELVQQQNVQLSLTEATEKAKQEFEKAGKDFLVETIKLGKLLRPNHLWGYYLFPDCYNHHYKKPGYNGSCFNVEIKRNDDLSWLWNESTALYPSIYLNTQQSPVAATLYVRNRVREAIRVSKIPDAKSPLPVFAYTRIVFTDQVLKFLSQDELVYTFGETVALGASGIVIWGTLSIMRSMKSCLLLDNYMETILNPYIINVTLAAKMCSQVLCQEQGVCIRKNWNSSDYLHLNPDNFAIQLEKGGKFTVRGKPTLEDLEQFSEKFYCSCYSTLSCKEKADVKDTDAVDVCIADGVCIDAFLKPPMETEEPQIFYNASPSTLSATMFIVSILFLIISSVASL
modifications: Human PH20 cDNA encoding amino acids 1-509
B6: SPAM1-KPPM: C-terminally truncated human PH20, precursor 473 aa (SEQ ID NO:27), mature 438 aa (SEQ ID NO:79) (protein, listed as Homo sapiens)
chain 1: MGVLKFKHIFFRSFVKSSGVSQIVFTFLLIPCCLTLNFRAPPVIPNVPFLWAWNAPSEFCLGKFDEPLDMSLFSFIGSPRINATGQGVTIFYVDRLGYYPYIDSITGVTVNGGIPQKISLQDHLDKAKKDITFYMPVDNLGMAVIDWEEWRPTWARNWKPKDVYKNRSIELVQQQNVQLSLTEATEKAKQEFEKAGKDFLVETIKLGKLLRPNHLWGYYLFPDCYNHHYKKPGYNGSCFNVEIKRNDDLSWLWNESTALYPSIYLNTQQSPVAATLYVRNRVREAIRVSKIPDAKSPLPVFAYTRIVFTDQVLKFLSQDELVYTFGETVALGASGIVIWGTLSIMRSMKSCLLLDNYMETILNPYIINVTLAAKMCSQVLCQEQGVCIRKNWNSSDYLHLNPDNFAIQLEKGGKFTVRGKPTLEDLEQFSEKFYCSCYSTLSCKEKADVKDTDAVDVCIADGVCIDAFLKPPM
chain 2: LNFRAPPVIPNVPFLWAWNAPSEFCLGKFDEPLDMSLFSFIGSPRINATGQGVTIFYVDRLGYYPYIDSITGVTVNGGIPQKISLQDHLDKAKKDITFYMPVDNLGMAVIDWEEWRPTWARNWKPKDVYKNRSIELVQQQNVQLSLTEATEKAKQEFEKAGKDFLVETIKLGKLLRPNHLWGYYLFPDCYNHHYKKPGYNGSCFNVEIKRNDDLSWLWNESTALYPSIYLNTQQSPVAATLYVRNRVREAIRVSKIPDAKSPLPVFAYTRIVFTDQVLKFLSQDELVYTFGETVALGASGIVIWGTLSIMRSMKSCLLLDNYMETILNPYIINVTLAAKMCSQVLCQEQGVCIRKNWNSSDYLHLNPDNFAIQLEKGGKFTVRGKPTLEDLEQFSEKFYCSCYSTLSCKEKADVKDTDAVDVCIADGVCIDAFLKPPM
modifications: HuPH20 precursor 1-473; Mature HuPH20 36-473
B7: SPAM1-LKPP: C-terminally truncated human PH20, precursor 472 aa (SEQ ID NO:28), mature 437 aa (SEQ ID NO:80) (protein, listed as Homo sapiens)
chain 1: MGVLKFKHIFFRSFVKSSGVSQIVFTFLLIPCCLTLNFRAPPVIPNVPFLWAWNAPSEFCLGKFDEPLDMSLFSFIGSPRINATGQGVTIFYVDRLGYYPYIDSITGVTVNGGIPQKISLQDHLDKAKKDITFYMPVDNLGMAVIDWEEWRPTWARNWKPKDVYKNRSIELVQQQNVQLSLTEATEKAKQEFEKAGKDFLVETIKLGKLLRPNHLWGYYLFPDCYNHHYKKPGYNGSCFNVEIKRNDDLSWLWNESTALYPSIYLNTQQSPVAATLYVRNRVREAIRVSKIPDAKSPLPVFAYTRIVFTDQVLKFLSQDELVYTFGETVALGASGIVIWGTLSIMRSMKSCLLLDNYMETILNPYIINVTLAAKMCSQVLCQEQGVCIRKNWNSSDYLHLNPDNFAIQLEKGGKFTVRGKPTLEDLEQFSEKFYCSCYSTLSCKEKADVKDTDAVDVCIADGVCIDAFLKPP
chain 2: LNFRAPPVIPNVPFLWAWNAPSEFCLGKFDEPLDMSLFSFIGSPRINATGQGVTIFYVDRLGYYPYIDSITGVTVNGGIPQKISLQDHLDKAKKDITFYMPVDNLGMAVIDWEEWRPTWARNWKPKDVYKNRSIELVQQQNVQLSLTEATEKAKQEFEKAGKDFLVETIKLGKLLRPNHLWGYYLFPDCYNHHYKKPGYNGSCFNVEIKRNDDLSWLWNESTALYPSIYLNTQQSPVAATLYVRNRVREAIRVSKIPDAKSPLPVFAYTRIVFTDQVLKFLSQDELVYTFGETVALGASGIVIWGTLSIMRSMKSCLLLDNYMETILNPYIINVTLAAKMCSQVLCQEQGVCIRKNWNSSDYLHLNPDNFAIQLEKGGKFTVRGKPTLEDLEQFSEKFYCSCYSTLSCKEKADVKDTDAVDVCIADGVCIDAFLKPP
modifications: HuPH20 precursor 1-472; Mature HuPH20 36-472
B8: SPAM1-FLKP: C-terminally truncated human PH20, precursor 471 aa (SEQ ID NO:29), mature 436 aa (SEQ ID NO:81) (protein, listed as Homo sapiens)
chain 1: MGVLKFKHIFFRSFVKSSGVSQIVFTFLLIPCCLTLNFRAPPVIPNVPFLWAWNAPSEFCLGKFDEPLDMSLFSFIGSPRINATGQGVTIFYVDRLGYYPYIDSITGVTVNGGIPQKISLQDHLDKAKKDITFYMPVDNLGMAVIDWEEWRPTWARNWKPKDVYKNRSIELVQQQNVQLSLTEATEKAKQEFEKAGKDFLVETIKLGKLLRPNHLWGYYLFPDCYNHHYKKPGYNGSCFNVEIKRNDDLSWLWNESTALYPSIYLNTQQSPVAATLYVRNRVREAIRVSKIPDAKSPLPVFAYTRIVFTDQVLKFLSQDELVYTFGETVALGASGIVIWGTLSIMRSMKSCLLLDNYMETILNPYIINVTLAAKMCSQVLCQEQGVCIRKNWNSSDYLHLNPDNFAIQLEKGGKFTVRGKPTLEDLEQFSEKFYCSCYSTLSCKEKADVKDTDAVDVCIADGVCIDAFLKP
chain 2: LNFRAPPVIPNVPFLWAWNAPSEFCLGKFDEPLDMSLFSFIGSPRINATGQGVTIFYVDRLGYYPYIDSITGVTVNGGIPQKISLQDHLDKAKKDITFYMPVDNLGMAVIDWEEWRPTWARNWKPKDVYKNRSIELVQQQNVQLSLTEATEKAKQEFEKAGKDFLVETIKLGKLLRPNHLWGYYLFPDCYNHHYKKPGYNGSCFNVEIKRNDDLSWLWNESTALYPSIYLNTQQSPVAATLYVRNRVREAIRVSKIPDAKSPLPVFAYTRIVFTDQVLKFLSQDELVYTFGETVALGASGIVIWGTLSIMRSMKSCLLLDNYMETILNPYIINVTLAAKMCSQVLCQEQGVCIRKNWNSSDYLHLNPDNFAIQLEKGGKFTVRGKPTLEDLEQFSEKFYCSCYSTLSCKEKADVKDTDAVDVCIADGVCIDAFLKP
modifications: HuPH20 precursor 1-471; Mature HuPH20 36-471

Tests used:
[1] = test system: CHO-S cells; experiment: Secretion of N-glycan site specific deglycosylation mutants into the media (Western blot); assay type: cell-based, Chinese Hamster; details: expressed in CHO-S cells, secretion into the media
[2] = test system: CHO-S cells; experiment: Western blot analysis of PH20 expression in media and cells after transient expression; assay type: cell-based, Chinese Hamster; details: band at approximately 66 kDa
In short: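 CHO-S cells were transiently transfected with mutant PH20-HZ24 plasmids using GeneJuice and expressed for 48-72 h at 37 °C, 5% CO2. Media and cells were harvested separately, with PI-PLC treatment used to release GPI-anchored protein. Non-reduced samples were blotted with rabbit anti-PH20 (0.5 μg/mL), and a band near 66 kDa was scored as PH20.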

| Molecule | Secretion [1] | Protein Expression [2] | further results |
| --- | --- | --- | --- |
| B1 | YES |  | Secretion ([1]; listed as N82): no effect on secretion |
| B2 | YES |  | Secretion ([1]; listed as N166): no effect on secretion |
| B3 | YES |  | Secretion ([1]; listed as N235): no effect on secretion |
| B4 |  | YES |  |
| B5 |  | YES |  |
| B6 |  | YES |  |
| B7 |  | YES |  |
| B8 |  | YES |  |

Substitutions are numbered along the chain they refer to. Numbers in names are those of the source.
